According to PubChem BioAssay AID1487 (National Center for Advancing Translational Sciences (NCATS), 2009):
“And” between values parts separate entries of the source, which are not always exact repeats. Equal values may be shown once. Some of the results follow. Shown are side measurements of this screen, not its main read-out; they come without a call. The list favours compounds with an active or inconclusive main result. Potencies come from curve fits of mixed quality, noted in brackets.

Test: qHTS Assay for Modulators of Lamin A Splicing
Settings: HeLa LMNA splicing GFP/RFP minigene ratio, 48 h
Outline: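 Read-out is the ratio of GFP to DsRed2 object intensity, acquired by 488 nm laser-scanning cytometry on HeLa lamin A-EGFP minigene reporter cells. Compound incubation 48 hrs at 37 °C in Opti-MEM with 2% FBS; DMSO 0.5% final.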

[1] = measured here: GFP splicing reporter channel
[2] = measured here: RFP viability control channel

Row | Compound | AC50 [1] | AC50 [2]
1 | CCCCNc1nnc(SCC(=O)c2c[nH]c3ccccc23)s1 | 5.62 µM [rising, partial curve, poor fit] | 25.1 µM [rising, partial curve, poor fit]
2 | CO[C@]1(NC(=O)[C@H](C(=O)O)c2ccc(O)cc2)C(=O)N2C(C(=O)O)=C(CSc3nnnn3C)CO[C@H]21 | 0.0316 µM [rising, full curve, poor fit] | –
3 | O=C(OCC#CCSc1nnc(-c2ccc(Br)cc2)o1)c1cccs1 | 11.2 µM [rising, single point] | 12.6 µM [rising, single point]
4 | O=C(Nc1ccc(C(O)(C(F)(F)F)C(F)(F)F)cc1)c1ccc(Cl)c([N+](=O)[O-])c1 | – | 35.5 µM [rising, partial curve]
5 | O=S(=O)(c1ccc2ccccc2c1)N(CC(O)CN1CCOCC1)c1ccccc1 (centres undefined) | 6.31 µM [rising, partial curve] | –
6 | O=C(Nc1ccc2c(c1)OCO2)c1ccc(Br)c(S(=O)(=O)N2CCCC2)c1 | – | 5.62 µM [rising, full curve]
7 | CN(C)/N=N\c1nc[nH]c1C(N)=O | 0.01 µM [falling, full curve] | 0.00631 µM [falling, full curve]
8 | CN(C)S(=O)(=O)N1CCN(S(=O)(=O)c2ccc3ccccc3c2)CC1 | – | 7.94 µM [rising, partial curve, poor fit]
9 | CCOc1ccc(-n2c(O)c(/C=N/NC(=O)C3COc4ccccc4O3)c3ccccc3c2=O)cc1 (centres undefined) | – | 15.8 µM [rising, single point]
10 | O=C(COc1ccc(F)cc1)OCc1cc(=O)n2nc(-c3cccs3)sc2n1 | 0.00355 µM [falling, full curve, poor fit] | –
11 | O=C(CN1C(=O)c2ccccc2C1=O)Nc1cc([N+](=O)[O-])ccc1O | 0.1 µM [falling, full curve, poor fit] | 0.0398 µM [falling, full curve]
12 | Cc1ccccc1NC(=S)NCCc1ccccc1 | – | 31.6 µM [rising, single point]
13 | COc1ccc(CN2C(=O)/C(=C/c3ccncc3)SC2=S)cc1 | 11.2 µM [rising, partial curve, poor fit] | 14.1 µM [rising, partial curve]
14 | Cc1onc(-c2ccccc2Cl)c1C(=O)Nc1sc2c(c1C(N)=O)CCC(C)C2 (centres undefined) | 20 µM [rising, single point] | 28.2 µM [rising, single point]
15 | COc1ccc(CCn2c(-c3ccco3)nc3nc4ccccc4nc32)cc1OC | – | 20 µM [rising, partial curve, poor fit]
16 | CCOC(=O)N1CCC(N2CCN(S(=O)(=O)c3ccc4ccccc4c3)CC2)CC1 | – | 22.4 µM [rising, single point]
17 | COCCn1c(SCc2nnc(-c3ccccc3)o2)nc2sc3c(c2c1=O)CCC3 | 12.6 µM [rising, single point] | –
18 | CCN(CC)S(=O)(=O)c1cc(C)c(C)cc1Br | – | 35.5 µM [rising, single point]
19 | Cc1ccc(NC(=O)Cn2cccc2C2=NC(c3ccccc3)CO2)cc1C (centres undefined) | – | 15.8 µM [rising, single point]
20 | CCN(CC)C(=O)c1ccc(/C=C/c2c[nH]c3ccccc23)[n+](C)c1 | – | 8.91 µM [rising, partial curve, poor fit]
21 | COc1cc(C(=O)OCC(C)=O)ccc1OCc1c(C)noc1C | – | 7.94 µM [rising, partial curve, poor fit]
22 | Cc1cccc(C)c1NC(=O)[C@H](C)N | 0.00398 µM [falling, full curve, poor fit] | 1.58 µM [falling, single point]
23 | CCOC(=O)c1ccc(NCc2nc3ccccc3[nH]2)cc1 | 20 µM [rising, single point] | 17.8 µM [rising, single point]
24 | NS(=O)(=O)c1cc2c(cc1Cl)NCNS2(=O)=O | – | 0.794 nM [falling, full curve, poor fit] and 4.47 nM [falling, full curve, poor fit]
25 | Cc1ccc(NC(=O)CSc2nnc(-c3n[nH]c4ccccc34)n2-c2ccccc2)c(C)c1 | 35.5 µM [falling, single point] | –
26 | Cc1ccc(NC(=O)c2scc3c2CCCC3)cc1 | 22.4 µM [rising, single point] | 25.1 µM [rising, single point]
27 | C[N+]1(C)CCC(=C(c2ccccc2)c2ccccc2)CC1 | 0.000891 µM [falling, full curve, poor fit] | 14.1 µM [falling, single point]

Row | Compound | AC50 [1] | AC50 [2]
28 | COc1ccccc1N1CCN(C(=O)CSc2ncnc3scc(-c4ccccc4)c23)CC1 | 14.1 µM [rising, partial curve, poor fit] | 17.8 µM [rising, partial curve]
29 | O=C(Nc1ccc(Cl)cc1)c1ccc(-n2cccn2)c([N+](=O)[O-])c1 | – | 14.1 µM [rising, single point]
30 | O=c1cc(-c2ccccc2)n2c(SCc3ccccc3Cl)nnc2[nH]1 | – | 0.0398 µM [rising, full curve]
31 | CN1C(c2ccc(F)cc2)=CS/C1=C(\C#N)c1nnc2n1-c1ccccc1SC2 | 6.31 µM [rising, partial curve] | 12.6 µM [rising, partial curve]
32 | COC(=O)c1c(C)[nH]c(C(=O)OCC(=O)NCC(C)C)c1C | – | 14.1 µM [rising, single point]
33 | CCOC(=O)N1CCN(C(=O)c2ccc3nc4ccc(Cl)cc4c(=O)n3c2)CC1 | – | 14.1 µM [rising, partial curve]
34 | Cc1c(Cl)cccc1NC(=O)CSc1nc(=O)n(Cc2ccco2)c2c1CCC2 | 35.5 µM [falling, partial curve] | –
35 | O=S(=O)(c1ccc(N2CCOCC2)nc1)N(Cc1ccccn1)Cc1ccccn1 | – | 0.447 µM [falling, full curve, poor fit]
36 | COc1cccc(NC(=O)/C=C/c2ccccc2[N+](=O)[O-])c1 | 17.8 µM [rising, single point] | 20 µM [rising, single point]
37 | CCOC(=O)/C(=C/C=C1\Sc2cc(C)c(C)cc2N1CC)C(C)=O | 35.5 µM [falling, single point] | 31.6 µM [falling, single point]
38 | O=C(O)c1cc2ccc3ccccc3c2oc1=O | – | 4.47 µM [rising, full curve, poor fit]
39 | Cc1ccc(CCNC(=O)c2ccc3c(c2)nc2n3CCOC2)cc1 | 3.16 µM [falling, single point] | 1.58 µM [falling, partial curve]
40 | Cc1sc(NC(=O)CCl)c(C(=O)c2ccccc2)c1C | – | 11.2 µM [rising, partial curve]
41 | CC(=O)N1CCCc2cc(S(=O)(=O)N3CCCC(C(=O)NCc4ccc(C)cc4)C3)ccc21 (centres undefined) | 3.98 µM [falling, full curve, poor fit] | 5.62 µM [falling, single point]
42 | C=CCc1ccccc1OC[C@H](O)CNC(C)C | 0.355 µM [falling, partial curve] | –
43 | COC(=O)c1cc(=O)n(Cc2ccc3c(c2)OCO3)c(=Nc2ccccc2)s1 | – | 20 µM [rising, partial curve]
44 | Nc1ccc(C(=O)Oc2ccccc2)c(O)c1 | 22.4 µM [falling, partial curve, poor fit] | –
45 | O=c1c(-c2ccc(F)cc2)nc2cnc(Oc3cccc(Cl)c3)nc2n1C1CC1 | – | 5.01 µM [falling, partial curve]
46 | CN(C)S(=O)(=O)N1CCCC(C(=O)c2ccc(C(F)(F)F)cc2)C1 (centres undefined) | 0.355 µM [falling, full curve, poor fit] | 3.98 µM [falling, full curve, poor fit]
47 | CC(=O)C1=C(c2ccccc2)N(C(C)=O)n2c(C)nnc2S1 | 4.47 µM [falling, partial curve, poor fit] | 2.24 µM [falling, partial curve, poor fit]
48 | CNNCc1ccc(C(=O)NC(C)C)cc1 | – | 3.16 µM [falling, single point]
49 | COc1ccc(C2CC3(CC(C)(C)NC(=O)N3)Oc3cc(O)ccc32)cc1 (centres undefined) | – | 10 µM [rising, partial curve]
50 | Cc1ccc(S(=O)(=O)C(CNC(=O)COc2ccccc2)c2ccco2)cc1 (centres undefined) | 0.0447 µM [rising, full curve, poor fit] | –
51 | O=C(CCCNS(=O)(=O)c1cccc2nsnc12)NCc1ccccc1 | – | 25.1 µM [rising, single point]
52 | C[C@H](CCC(=O)O)[C@H]1CC[C@@H]2[C@H]3[C@@H](C[C@@H](O)[C@]21C)[C@]1(C)CC[C@H](O)C[C@@H]1C[C@@H]3O | 0.355 µM [falling, partial curve, poor fit] | 0.355 µM [falling, partial curve]
53 | CCCCONc1ncnc2nonc12 | 7.94 µM [rising, partial curve, poor fit] | 11.2 µM [rising, partial curve]
54 | Cc1nc2ccccc2nc1OCc1ccc([N+](=O)[O-])cc1 | – | 11.2 µM [rising, partial curve, poor fit]

Gathered by group, those above with a CF3 group (2)
Row | Compound | AC50 [1] | AC50 [2]
4 | O=C(Nc1ccc(C(O)(C(F)(F)F)C(F)(F)F)cc1)c1ccc(Cl)c([N+](=O)[O-])c1 | – | 35.5 µM [rising, partial curve]
46 | CN(C)S(=O)(=O)N1CCCC(C(=O)c2ccc(C(F)(F)F)cc2)C1 (centres undefined) | 0.355 µM [falling, full curve, poor fit] | 3.98 µM [falling, full curve, poor fit]
